For this assay, the target named is T1, SIGIRR-FLAG (UniProt Q6IA17).
T1 sequence: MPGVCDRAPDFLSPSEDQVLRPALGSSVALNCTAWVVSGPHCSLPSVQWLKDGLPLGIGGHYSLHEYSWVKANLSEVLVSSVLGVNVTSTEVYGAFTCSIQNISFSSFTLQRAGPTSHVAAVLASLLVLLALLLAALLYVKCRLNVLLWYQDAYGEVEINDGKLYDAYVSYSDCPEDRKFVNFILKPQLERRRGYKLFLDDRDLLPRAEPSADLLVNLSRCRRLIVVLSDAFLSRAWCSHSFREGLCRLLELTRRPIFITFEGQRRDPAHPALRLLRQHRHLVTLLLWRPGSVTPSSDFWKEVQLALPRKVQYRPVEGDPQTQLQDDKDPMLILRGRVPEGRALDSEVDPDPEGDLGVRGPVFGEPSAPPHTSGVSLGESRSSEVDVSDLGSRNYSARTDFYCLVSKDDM
The experiment in a line: co-IP; HeLa cells co-transfected with MyD88-HA and SIGIRR-FLAG, uninfected or infected with C. trachomatis LGV/L2 (MOI 1, 24 h); lysates on ANTI-FLAG M2 resin overnight at 2-8°C; immunoblot with anti-HA.

By UniProt entry, the sequences of proteins in these tests, tags left out.
UniProt Q99836: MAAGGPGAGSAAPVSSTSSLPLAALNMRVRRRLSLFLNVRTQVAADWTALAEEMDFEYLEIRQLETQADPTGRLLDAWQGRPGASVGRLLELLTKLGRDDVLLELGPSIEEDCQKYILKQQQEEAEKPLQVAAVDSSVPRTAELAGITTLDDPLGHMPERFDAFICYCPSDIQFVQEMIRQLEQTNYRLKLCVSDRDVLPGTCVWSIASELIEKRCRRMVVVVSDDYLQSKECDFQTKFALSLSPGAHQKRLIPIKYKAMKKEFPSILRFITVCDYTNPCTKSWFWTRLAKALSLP

In article PMC7094862 one finds binding data, which are given here for one substance.

No constants are given. Whether binding was seen depends on the method and setting. In cells and extracts the contact can be indirect. Some binding calls cover weakened binding; strength is not graded here. Tags and fused reporters may be left off the sequences shown.

In the case of MyD88-HA (from UniProt Q99836 1-296), the binding result is on record as “binds”.
